Measured values from publication PMC4029847 (Journal of clinical pharmacology, 2013).
Like-named read-outs stand apart in the source and are kept apart here. Marks after values point to notes of the source that are not given here.

Format: in vivo, human

Structure (SMILES): CC(C)(C(=O)O)c1ccc(C(O)CCCN2CCC(C(O)(c3ccccc3)c3ccccc3)CC2)cc1 (centres unmarked) [fexofenadine]
- Cl/F, geometric mean (CV%) (fexofenadine 120 mg oral with 240 ml GFJ): 69.3 ^b (33.5) l/h
- Cl/F, geometric mean (CV%) (fexofenadine 120 mg oral with 240 ml water): 52.8 (40.0) l/h
